According to article doi:10.1101/2024.12.18.629111 (bioRxiv, 2024):
These are yes or no findings as the source states them, for the method shown. Sequences can lack the tags named with a protein.

Columns and labels:
Assay in all cases: pull-down
[1] = molecular target: T1, CBP-Upf1-Ct (S. cerevisiae) (UniProt P30771)
T1 sequence: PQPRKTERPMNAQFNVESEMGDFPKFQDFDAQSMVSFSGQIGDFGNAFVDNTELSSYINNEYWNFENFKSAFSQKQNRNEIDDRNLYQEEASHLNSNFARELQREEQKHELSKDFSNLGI

CBP-Upf1-HD = molecular target: T2, CBP-Upf1-HD (S. cerevisiae, UniProt P30771 221-851)
T2 sequence (looked up): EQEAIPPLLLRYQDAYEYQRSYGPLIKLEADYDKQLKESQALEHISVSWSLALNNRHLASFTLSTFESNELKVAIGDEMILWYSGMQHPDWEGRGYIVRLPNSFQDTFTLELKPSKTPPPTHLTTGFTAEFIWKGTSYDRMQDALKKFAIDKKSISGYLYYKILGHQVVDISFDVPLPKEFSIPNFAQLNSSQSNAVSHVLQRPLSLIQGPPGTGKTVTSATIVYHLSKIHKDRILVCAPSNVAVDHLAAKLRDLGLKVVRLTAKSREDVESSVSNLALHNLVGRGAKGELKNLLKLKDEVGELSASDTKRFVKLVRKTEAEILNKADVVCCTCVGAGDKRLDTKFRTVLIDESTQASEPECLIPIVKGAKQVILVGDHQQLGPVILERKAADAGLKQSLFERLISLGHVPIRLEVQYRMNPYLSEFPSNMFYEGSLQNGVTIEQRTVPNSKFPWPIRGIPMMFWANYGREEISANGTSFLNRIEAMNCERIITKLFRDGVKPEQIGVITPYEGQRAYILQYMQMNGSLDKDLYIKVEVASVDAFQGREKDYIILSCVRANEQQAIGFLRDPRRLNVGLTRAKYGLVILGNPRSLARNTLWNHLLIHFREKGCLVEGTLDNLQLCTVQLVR

CBP-Upf1-HD-Ct = molecular target: T3, CBP-Upf1-HD-Ct (S. cerevisiae, UniProt P30771 221-971)
T3 sequence (looked up): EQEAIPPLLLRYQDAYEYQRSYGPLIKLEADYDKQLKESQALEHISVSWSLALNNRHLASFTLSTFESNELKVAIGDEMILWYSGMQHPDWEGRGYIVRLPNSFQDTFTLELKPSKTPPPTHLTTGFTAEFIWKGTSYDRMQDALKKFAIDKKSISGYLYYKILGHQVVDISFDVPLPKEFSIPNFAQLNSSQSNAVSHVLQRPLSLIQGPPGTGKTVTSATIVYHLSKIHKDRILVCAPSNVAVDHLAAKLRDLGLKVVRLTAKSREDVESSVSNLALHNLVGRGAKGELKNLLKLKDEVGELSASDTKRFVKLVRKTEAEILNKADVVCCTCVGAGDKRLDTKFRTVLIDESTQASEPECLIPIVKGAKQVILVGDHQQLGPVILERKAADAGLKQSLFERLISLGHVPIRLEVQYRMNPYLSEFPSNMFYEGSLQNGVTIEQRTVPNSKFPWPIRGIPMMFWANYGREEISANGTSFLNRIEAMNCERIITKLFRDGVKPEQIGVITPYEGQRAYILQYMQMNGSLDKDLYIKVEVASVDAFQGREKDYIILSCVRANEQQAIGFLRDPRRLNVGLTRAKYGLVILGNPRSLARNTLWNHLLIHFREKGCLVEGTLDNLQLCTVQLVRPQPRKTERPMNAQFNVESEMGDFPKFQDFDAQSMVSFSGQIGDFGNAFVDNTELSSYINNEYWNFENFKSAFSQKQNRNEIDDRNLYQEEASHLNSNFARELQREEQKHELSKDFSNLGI

Measured: binding

B1: GST-Dcp2-UBD (domain or fragment, S. cerevisiae, UniProt P53550 434-720, looked up)
chain: GYSSSSPGQLLDILNSKKPDSNVQSSKKPKLKILQRGTDLNSIKQNNNDETAHSNSQALLDLLKKPTSSQKIHASKPDTSFLPNDSVSGIQDAEYEDFESSSDEEVETARDERNSLNVDIGVNVMPSEKDSRRSQKEKPRNDASKTNLNASAESNSVEWGPGKSSPSTQSKQNSSVGMQNKYRQEIHIGDSDAYEVFESSSDEEDGKKLEELEQTQDNSKLISQDILKENNFQDGEVPHRDMPTESNKSINETVGLSSTTNTVKKVPKVKILKRGETFASLANDKKA
no binding: [1] | CBP-Upf1-HD | CBP-Upf1-HD-Ct
